The assay can be described thus: qHTS Assay to Find Inhibitors of Chronic Active B-Cell Receptor Signaling. Particulars: ABC-DLBCL IkBa-CBG/CBR reporter, luminescence ratio (green luciferase fused to IkBa over red control in TMD8 lymphoma cells), 4 h. The essentials: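 Doxycycline induced both beetle luciferases in TMD8 lymphoma cells; IKK-driven degradation limits the IkappaBalpha-fused green signal, while red luminescence normalises for cell number and nonspecific effects. Compounds tested up to 46 uM, 4 hrs.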

[1] abbreviates: measured here: CBR red luminescence, cell number.
Where [2] appears, read: measured here: IkBa-CBG green luminescence.

SMILES strings stand for the structures. The list shows a part of the results. The main result of the screen is listed elsewhere. These columns were measured beside it and carry no call. Most of these compounds were active or inconclusive in the main read-out, so they are no random draw. The note in brackets gives the kind of curve behind each potency; many fits are weak.

In general, AC50 refers to the concentration at which the activity in the assay is half-maximal. With `COc1ccccc1CNS(=O)(=O)CCNC(=O)c1ccccc1`, the AC50 under setting [1] was 13 µM [rising, partial curve].
Still for that read-out and setting: as for `O=C(O)Cc1ccc(C(=O)c2ccc(F)cc2)s1`, the figure is 29.1 µM [rising, single point].
`O=C(O)CCNc1cc(N2CCN(C(=O)c3ccco3)CC2)c2noc3c2c1C(=O)c1ccccc1-3`: the half-maximal activity concentration (AC50) under setting [1] was 11.2 µM [falling, partial curve, poor fit].
For `COC(=O)c1sc(NC(=O)COc2cccnc2[N+](=O)[O-])c(C(=O)OC)c1C`, the concentration at half-maximal activity (AC50) under setting [1] is 13 µM [falling, partial curve, poor fit].
Consider `Cc1ccc(S(=O)(=O)NCC(=O)OCc2csc(-c3ccccc3)n2)cc1`, for which, under setting [1], the concentration at half-maximal activity (AC50) was 7.31 µM [falling, partial curve, poor fit].
Still for that read-out and setting: as for `C/C=C/c1ccc(OCC(=O)Nc2cc(S(=O)(=O)N3CCOCC3)ccc2N2CCCC2)c(OC)c1`, the figure is 5.8 µM [falling, partial curve, poor fit]; as for `CC1(NC(=O)c2cccc(S(=O)(=O)N3CCCc4ccccc43)c2)CCS(=O)(=O)C1` (stereo not drawn), 29.1 µM [falling, partial curve, poor fit].
Consider `O=C(Nc1ccc(Cl)cn1)c1ccc2c(Cl)c3c(nc2c1)CCC3`, for which the AC50 under setting [1] is 0.708 µM [falling, full curve, poor fit].
Still for that read-out and setting: as for `COc1ccc(-c2[nH]n(-c3ccc([N+](=O)[O-])cc3)c(=O)c2C=NCC2CCCO2)cc1` (stereo not drawn), the figure is 0.447 µM [rising, full curve, poor fit]; as for `O=C(N/N=C/c1cccc(C(F)(F)F)c1)c1ccc(O)cc1`, 11.2 µM [falling, partial curve, poor fit].
For the molecule `CCCNC(=O)CCn1nc(-c2ccc(C)cc2)c2ccccc2c1=O`, under setting [1], the concentration at half-maximal activity (AC50) was 0.158 µM [rising, full curve, poor fit].
In the case of `O=[N+]([O-])c1cc(S(=O)(=O)C(F)(F)F)ccc1Sc1nc2ccccc2[nH]1`, the AC50 is 10.3 µM [falling, partial curve] under setting [1] and 18.4 µM [rising, partial curve, poor fit] under setting [2].
As for `COc1ccc(CNC(=O)c2sc(=S)n(-c3ccc(OC)cc3)c2N)cc1`, the AC50 under setting [1] was 29.1 µM [rising, single point].
Same read-out and setting: with `O=[N+]([O-])c1cc(S(=O)(=O)N2CCCC2)ccc1O` the figure was 20.6 µM [rising, partial curve, poor fit].
In the case of `O=C(Nc1ccc(NC(=S)NC(=O)c2cccs2)cc1)c1ccco1`, the concentration at half-maximal activity (AC50) was 14.1 µM [rising, partial curve, poor fit] under setting [1] and 11.2 µM [falling, single point] under setting [2].
Regarding `Nc1nc(SCC(=O)c2ccc([N+](=O)[O-])cc2)n[nH]1`, under setting [1], the AC50 is 8.91 µM [falling, partial curve, poor fit].

Source of the values: PubChem BioAssay AID493014 (National Center for Advancing Translational Sciences (NCATS), 2011).
